Record: PubChem BioAssay AID1224830 (NIAID, 2016)
In all, the deposit lists about 18,000 reagents; below is an unselected part. About 2,900 of them (16%) count as active. 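Calls are made per well; low scores hint the gene aids the LPS response, high scores that it dampens it.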 Repeated entries: four replicate wells of each siRNA pool. Reagent sequences are not shown.

Screen: 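Host factors that control LPS-induced TNF expression in human macrophages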 (primary screen)
Cells: human THP-1 monocytic leukaemia cells, TNF dual-luciferase reporter clone, PMA-differentiated to macrophage-like cells
Reagent: siRNA pool against human genes, 50 nM
Time to read-out: LPS for 4 h, given about 3 days after siRNA transfection
Treatment: bacterial LPS (TLR4 ligand), 10 ng/ml
Detection: 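Ratio of firefly to renilla light, scaled to the plate median and expressed as a robust z-score per replicate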
Scale: TNF reporter robust z-score: higher = stronger TNF reporter response to LPS
Call rule: 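Each well counts as active if its z-score is over 2.8 or under -1.5; controls are left without a call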

For GABPB2, the entry reads TNF reporter robust z-score 0.52; inactive.
Knock-down of GABPB2 resulted in: TNF reporter robust z-score 0.57; inactive.
Against GABPB2 the deposit lists TNF reporter robust z-score 0.7; inactive.
With knock-down of GABPB2 the results were TNF reporter robust z-score 0.07; inactive.
Silencing of LRRTM3 gave: TNF reporter robust z-score -0.61; inactive.
For LRRTM3, the values are TNF reporter robust z-score 0.71; inactive.
With knock-down of LRRTM3, the record shows TNF reporter robust z-score -0.36; inactive.
LRRTM3 gave TNF reporter robust z-score 0.41; inactive.
Against OR6C75 the deposit lists TNF reporter robust z-score -0.72; inactive.
With knock-down of OR6C75 the results were TNF reporter robust z-score 0.76; inactive.
For OR6C75 the deposit lists TNF reporter robust z-score 0.4; inactive.
OR6C75 showed TNF reporter robust z-score 1.25; inactive.
With knock-down of MTSS1 the results were TNF reporter robust z-score 0.38; inactive.
Silencing of MTSS1 gave: TNF reporter robust z-score -0.15; inactive.
With knock-down of MTSS1 the results were TNF reporter robust z-score -0.08; inactive.
Silencing of FCGBP resulted in: TNF reporter robust z-score -0.7; inactive.
FCGBP scored TNF reporter robust z-score 0.01; inactive.
With knock-down of FCGBP, the screen gave TNF reporter robust z-score -0.93; inactive.
For FCGBP, the values are TNF reporter robust z-score -0.34; inactive.
Silencing of FOXN1 gave: TNF reporter robust z-score -0.72; inactive.
After knock-down of FOXN1, the record shows TNF reporter robust z-score 0.85; inactive.
Silencing of FOXN1 came out at: TNF reporter robust z-score 2.31; inactive.
FOXN1 showed TNF reporter robust z-score 0.54; inactive.
DOHH scored TNF reporter robust z-score -0.58; inactive.
For DOHH, the entry reads TNF reporter robust z-score -0.65; inactive.
Silencing of DOHH came out at: TNF reporter robust z-score -0.51; inactive.
DOHH gave TNF reporter robust z-score -0.38; inactive.
After knock-down of HRNR, the record shows TNF reporter robust z-score -1.49; inactive.
Knock-down of HRNR gave: TNF reporter robust z-score -1.2; inactive.
Silencing of HRNR gave: TNF reporter robust z-score -0.91; inactive.
SMAD9 gave TNF reporter robust z-score -0.24; inactive.
For SMAD9, the values are TNF reporter robust z-score 0.35; inactive.
Knock-down of SMAD9 gave: TNF reporter robust z-score -0.72; inactive.
Knock-down of SMAD9 resulted in: TNF reporter robust z-score 1.01; inactive.
Silencing of TNFRSF4 came out at: TNF reporter robust z-score -1.67; active.
For TNFRSF4, the entry reads TNF reporter robust z-score -0.89; inactive.
With knock-down of TNFRSF4 the results were TNF reporter robust z-score -1.05; inactive.
For TNFRSF4, the entry reads TNF reporter robust z-score -0.31; inactive.
Against NAE1, the values are TNF reporter robust z-score 0.65; inactive.
With knock-down of NAE1, the screen gave TNF reporter robust z-score 0.95; inactive.
NAE1 scored TNF reporter robust z-score 2.01; inactive.
PPP1R35 gave TNF reporter robust z-score 1.61; inactive.
For PPP1R35 the deposit lists TNF reporter robust z-score 0.21; inactive.
Silencing of PPP1R35 resulted in: TNF reporter robust z-score -1.23; inactive.
Silencing of PPP1R35 came out at: TNF reporter robust z-score -0.66; inactive.
Depletion of HEATR5B resulted in: TNF reporter robust z-score -0.44; inactive.
Knock-down of HEATR5B came out at: TNF reporter robust z-score 0.1; inactive.
Knock-down of HEATR5B came out at: TNF reporter robust z-score -0.83; inactive.
Knock-down of HEATR5B gave: TNF reporter robust z-score -0.15; inactive.

8 neighbouring records already listed, quoted:
DOHH — TNF reporter robust z-score = -0.58; activity call = inactive
DOHH — TNF reporter robust z-score = -0.65; activity call = inactive
DOHH — TNF reporter robust z-score = -0.51; activity call = inactive
DOHH — TNF reporter robust z-score = -0.38; activity call = inactive
HRNR — TNF reporter robust z-score = -1.49; activity call = inactive
HRNR — TNF reporter robust z-score = -1.2; activity call = inactive
HRNR — TNF reporter robust z-score = -0.91; activity call = inactive
SMAD9 — TNF reporter robust z-score = -0.24; activity call = inactive
